Earlier results in patent publication US6417229B1, “α-sulfonylamino hydroxamic acid inhibitors of matrix metalloproteinases for the treatment of peripheral or central nervous system disorders” (Pfizer Inc, priority 1999, dated 2002).
At least one structure is not confirmed: it was looked up by name or label, or the drawing left a doubt.

Tested on: MMP-9 induction by Aβ
Conditions: rat microglia; Gottschall 1996

**Q.** Which “inhibition of MMP-9 induction by Aβ” value does the source give for `C[C@@H]1C[C@H]2[C@@H]3CCC4=CC(=O)C=C[C@]4(C)[C@@]3(F)[C@@H](O)C[C@]2(C)[C@@]1(O)C(=O)CO` [dexamethasone] here?
**A.** can be inhibited
